Measured values reported in US20240158515A1, “ANTI-FGFR3 ANTIBODIES AND ANTIGEN-BINDING FRAGMENTS AND METHODS OF USE THEREOF” (Regeneron Pharmaceuticals, Inc., priority 2022, published 2024).

Experiments:
Assay type in all cases: cell-based, murine
[1] = tested on: BaF3 cells expressing FGFR3 S249C/V557L; assay: BaF3 proliferation assay, FGFR3 S249C/V557L; settings: FIG. 12A right
Description: (§1) IL-3 dependent murine pro B cell line BaF3 cells were engineered to stably express full length human FGFR3b S249C, V557L, V557M, S249C/V557L, S249C/V557M (accession number for WT FGFR3b NP_001156685.1, amino acids M1-T808). Cells were maintained in RPMI 1640+10% FBS+P/S/G+1 ng/ml mouse IL-3+500 ug/ml Neomycin; 37° C. 5% CO2. For proliferation assays, cells were washed with IL-3-free culture media and plated at 10^5 cells/well into 96-well black wall tissue culture plates. Cells were treated with 1:3 serially diluted antibody as indicated in the presence or absence of 5 μg/ml heparin and 1 nM human FGF1. After addition of antibodies, cells were incubated at 37° C./5% CO2 for 72 h followed by the addition of an equal volume of CellTiter-Glo™ (Promega) reagent to lyse cells and detect luciferase activity. Luminescence signal was quantitated with Envision plate reader (PerkinElmer). EC50 values of the antibodies were determined using GraphPad Prism software.

[2] = tested on: BaF3 cells expressing FGFR3 S249C; assay: BaF3 proliferation assay, FGFR3 S249C (TKI resistance study); settings: Mus musculus, 72 h, CellTiter-Glo, FIG. 12A left, read-out: IC50, growth of BaF3 cells expressing FGFR3 S249C
Description: as §1

[3] = tested on: BaF3 cells expressing FGFR3 S249C/V557M; assay: BaF3 proliferation assay, FGFR3 S249C/V557M; settings: FIG. 12B
Description: as §1

In the case of `COc1cc(OC)cc(N(CCNC(C)C)c2ccc3ncc(-c4cnn(C)c4)nc3c2)c1` [erdafitinib], the “growth inhibition of BaF3 cells expressing FGFR3 S249C+V557L (in words)” value [1] is reported as “ineffective”, the IC50 [2] is reported as 1.2 nM and the “growth inhibition of BaF3 cells expressing FGFR3 S249C+V557M (in words)” value [3] is reported as “ineffective”.
